Assay results published in patent publication US8466176B2 (priority 2008, dated 2013).
Some entries share one result that the patent states for a list of compounds.

How the values were obtained:
[1] = tested on: Phytophthora infestans; assay type: in vivo; details: 500 ppm of active ingredient; tomato, preventive spray, evaluated 7 days after inoculation; 0% = control, 100% = no disease
[2] = tested on: Plasmopara viticola; assay: Plasmopara Test (Grapevines)/Protective; assay type: in vivo; details: 100 ppm of active ingredient, protective spray, evaluated 6 days after inoculation, 0% = control, 100% = no disease

Compound: Cn1nnnc1C(=NOCc1csc(C#CC2CCCCC2)n1)c1ccccc1 [Example 68]
- efficacy [1]: ≥ 70%
- efficacy [2]: ≥ 70%

Compound: CCCCC/C=C/c1cccc(CON=C(c2ccccc2)c2nnnn2C)n1 [Example 90]
- efficacy [1]: ≥ 70%
- efficacy [2]: ≥ 70%

Compound: CC(C)CCC#Cc1nc(CON=C(c2ccccc2)c2nnnn2C)cs1 [Example 65]
- efficacy [1]: ≥ 70%
- efficacy [2]: ≥ 70%

Compound: Cn1nnnc1C(=NOCc1nc(C#CC2CCCCC2)ccc1F)c1ccccc1 [Example 108]
- efficacy [1]: ≥ 70%
- efficacy [2]: ≥ 70%

Compound: COc1ccc(CON=C(c2ccccc2)c2nnnn2C)nc1C#CC(C)(C)C [Example 133]
- efficacy [1]: ≥ 70%
- efficacy [2]: ≥ 70%

Compound: Cn1nnnc1C(=NOCc1cccc(C#CCc2cccc(F)c2)n1)c1ccccc1 [Example 112]
- efficacy [1]: ≥ 70%
- efficacy [2]: ≥ 70%

Compound: COc1ccc(CON=C(c2ccccc2)c2nnnn2C)nc1C#CCCCc1ccccc1 [Example 130]
- efficacy [1]: ≥ 70%
- efficacy [2]: ≥ 70%

Compound: COc1ccc(CON=C(c2ccccc2)c2nnnn2C)nc1C#CCC1CCCCC1 [Example 129]
- efficacy [1]: ≥ 70%
- efficacy [2]: ≥ 70%

Compound: Cn1nnnc1C(=NOCc1cccc(C#CC[Si](C)(C)C)n1)c1ccccc1 [Example 26]
- efficacy [1]: ≥ 70%
- efficacy [2]: ≥ 70%

Compound: Cn1nnnc1C(=NOCc1nc(C#CCc2ccccc2)ccc1F)c1ccccc1 [Example 100]
- efficacy [1]: ≥ 70%
- efficacy [2]: ≥ 70%

Compound: Cn1nnnc1C(=NOCc1nc(C#CCOc2ccccc2)ccc1F)c1ccccc1 [Example 106]
- efficacy [1]: ≥ 70%
- efficacy [2]: ≥ 70%

Compound: CCCCC#Cc1nc(CON=C(c2ccccc2)c2nnnn2C)ccc1OC [Example 127]
- efficacy [1]: ≥ 70%
- efficacy [2]: ≥ 70%

Compound: CCCC#Cc1cccc(CON=C(c2ccccc2)c2nnnn2C)n1 [Example 27]
- efficacy [1]: ≥ 70%
- efficacy [2]: ≥ 70%
